No constants are given. Whether binding was seen depends on the method and setting. Some binding calls cover weakened binding; strength is not graded here.
How the values were obtained:
[1] = target: ZEBOV GP protein (coated, ELISA) (Zaire ebolavirus (ZEBOV)) (UniProt Q05320); test: ELISA titration on coated GP
[2] = target: ZEBOV GP protein (coated, ELISA) (Zaire ebolavirus (ZEBOV)) (UniProt Q05320); test: ELISA cross-competition on GP-coated plates

Amino acid sequences for entries named in this document (tags omitted). Residues count along the entry.
UniProt Q05320, residues 33-650: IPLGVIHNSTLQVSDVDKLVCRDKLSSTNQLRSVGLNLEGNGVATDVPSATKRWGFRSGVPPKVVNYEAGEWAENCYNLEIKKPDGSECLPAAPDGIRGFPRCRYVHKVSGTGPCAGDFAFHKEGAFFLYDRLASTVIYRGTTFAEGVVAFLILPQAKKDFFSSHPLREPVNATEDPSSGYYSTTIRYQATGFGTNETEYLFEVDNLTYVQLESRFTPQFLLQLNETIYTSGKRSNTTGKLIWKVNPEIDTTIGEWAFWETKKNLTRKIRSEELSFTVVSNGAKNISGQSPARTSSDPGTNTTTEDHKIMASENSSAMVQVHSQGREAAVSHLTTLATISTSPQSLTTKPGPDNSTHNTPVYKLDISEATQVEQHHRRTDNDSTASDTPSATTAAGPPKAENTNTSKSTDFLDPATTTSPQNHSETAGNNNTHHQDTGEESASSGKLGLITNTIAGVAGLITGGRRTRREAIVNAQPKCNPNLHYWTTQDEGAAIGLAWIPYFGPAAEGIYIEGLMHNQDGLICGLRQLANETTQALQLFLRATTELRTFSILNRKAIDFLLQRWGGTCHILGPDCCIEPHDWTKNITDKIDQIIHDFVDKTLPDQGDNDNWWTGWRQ

B1: EVB100 (antibody, V domains shown)
VH: QVQLQESGPGLVKPSDTLSLTCTVSGGSLSSFYWSWIRQPPGKGLEWIGYIYYSGSPNYSPSLESRVTMSVDTTRNQISLKLDSVTAADTAVYYCVRASRSYYWGSYRPTAFDSWGQGTLVTVSS
VL: SYELTQPLSVSVSPGQTAIFTCSGDNLGDKYVCWFQQRPGQSPMLLIYQDNKRPSGIPERFSGSNSGNTATLTISGTQSTDEADYYCQTWDSTVVFGGGTKLTVL
- binding [1]: binds
- binding [2]: binds

Reference: patent WO2016075546A2
